# Results are given in words; binding and its absence hold for the method and conditions named. In cells and extracts the contact can be indirect. A yes stands for co-enrichment or nearness to the bait. Other partners may have been found.
# By UniProt entry, the sequences of proteins in these tests, tags left out. Residues count along the entry.
# UniProt Q9QUG3, residues 26-155: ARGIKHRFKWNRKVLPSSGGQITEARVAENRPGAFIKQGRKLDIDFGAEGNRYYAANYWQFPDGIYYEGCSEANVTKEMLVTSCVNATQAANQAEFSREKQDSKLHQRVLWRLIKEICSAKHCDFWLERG
# Biological target: FLAG-Dpl (mouse) (UniProt Q9QUG3)
# Assay: affinity purification with mass spectrom
row,Binder,binding
1,"metal ion transporter ZIP10 (protein, UniProt Q6P5F6 26-833) HEDHDHGPEELHRHHRGMTESESSKFSVQDAENEKKYYIEKLFDRYGENGRLSFFGLEKLLTNLGLGEIKVVEINHEDLGHDHVSHLDILAVQEGKHFHSHTHQHFHNHLNAENHTTTSVTSKRNHKCDPEKEAAELPIKADDKHLHDRNHRFHHRHRLHHHLDHNTTRHVHNDSVAHSEHGEPGHSPSPETNKTQEQSEVKSVKVRRKEKGKRKKENSEVNTPGFLPNHDHSEQYEHNRVHKLDRVHSPGHPHAHLPEHSGHELGHGHQELDPDNEGELRHTRKREAPHVRKSAIYSTPSHKDQSEDDRQHECLNVTQLLKHFGLGPNSPISPDLFTYLCPALLYQIDSRLCIEHFDKLLVEDLNKDKTLVPEDKTNIGASAWICGIISITVISLLSLLGVILVPIINQGCFKFLLTFLVALAVGTMSGDALLHLLPHSQGGHDHSHQHTHGHGHSHGHESKEFLEEYDAVLKGLVALGGIYLLFIIEHCIRMFKHYKQQRGKQKWFMKQSTEESTIGRKLSDHKLNSTPDADWLQLKPLAGTDDSVVSEDRLNETELTDLEAQQESPPKNYLGVEEEKIMDHSHSDGLHTIHEHEVHVTSHNHHDEDKAVLRKHSHQWHHRHAHHSHGPCHSGSDLKETGIANIAWMVIMGDGIHNFSDGLAIGAAFSAGLTGGISTSIAVFCHELPHELGDFAVLLKAGMTVKQAIVYNLLSAMMAYIGMLIGTAVGQYANNITLWIFAITAGMFLYVALVDMLPEMLHGDGDHEEHGFCPVGQFILQNLGLLFGFAIMLVIALYEDKIVFDIQF",binds
2,"integrin alpha V (protein, UniProt P43406 31-1044) FNLDVESPAEYAGPEGSYFGFAVDFFEPSTSSRMFLLVGAPKANTTQPGIVEGGQVLKCECSSSRRCQPIEFDSTGNRDYAKDDPLEFKSHQWFGASVRSKQDKILACAPLYHWRTEMKQEREPVGTCFLQDGTKTVEYAPCRSKNIDADGQGFCQGGFSIDFTKADRVLLGGPGSFYWQGQLISDQVAEIISKYDPNVYSIKYNNQLATRTAQAIFDDSYLGYSVAVGDFNGDGIEDFVSGVPRAARTLGMVYIYDGKNMSSLHNFTGEQMAAYFGFSVAATDINGDDYADVFIGAPLFMDRGSDGKLQEVGQVSVSLQRAVGDFQTTKLNGFEVFARFGSAIAPLGDLDQDGFNDIAIAAPYGGEDKKGLVYIFNGRSTGLNSVPSQILEGQWAAQSMPPSFGYSMKGATDVDRNGYPDLVVGAFGVDRAVLYRARPVVTVNAGLEVYPSILNQDNKICPLPGTALKVSCFNVRFCLKADGKGTLPRKLHFQVELLLDKLKQKGAIRRALFLHNRSPVHSKTMTVFRGGQMQCEELVAYLRDESEFRDKLTPITIFMEYRLDQRTAADATGLQPILNQFTPANVSRQAHILLDCGEDNVCKPKLEVSVNSDQKKIYIGDDNPLTLTVKAQNQGEGAYEAELIVSIPPQADFIGVVRNNEALARLSCAFKTENQTRQVVCDLGNPMKAGTQLLAGLRFSVHQQSEMDTSVKFDLKIQSSNSFDNVSPVVSYKVDLAVLAAVEIRGVSSPDHIFLPIPNWEYKENPETEEDVGPIVQHIYELRNNGPSSFSKAILNLQWPYKYNNNTLLYILHYDIDGPMNCTADTEINPLRIKTPEKNDTAAAGQGERNHLITKRDLTLREGDVHTLGCGIAKCLQITCQVGRLDRGKSAILYVKSLLWTETFMNKENQNHSYSLKSSASFNIIEFPYKNLPIEDLFNSTLVTTNITWGIQPAPMPVPVWVIILAVLAGLLLLAVLVFVMYRMGFFKRVRPPQEEQEREQLQPHENGEGNSET",binds
3,"immunoglobulin superfamily, member 8 (protein, UniProt Q8R366 26-611) RQVHVPRGPLYRVAGTAVSISCNVSDYEGPAQQDFEWFMYRPEAPATSLGIVSTKDSQFSYAVFGPRVASGDLQVQRLKGDSVVLKIARLQAQDSGFYECYTPSTDTQYLGNYSAKVELRVLPDELQVSAAPPGPRGRQAATSPSRLTVHEGQELALGCLAQTKTKKHTHLSVSFGRAIPEAPVGRATLQEVVGLRSDMAVEAGAPYAERLASGELRLSKEGTDRYRMVVGGAQAGDSGTYHCTAAEWIQDPDGSWVQVAEKRAVLAHVDVQTLSSQLAVTVGPGERRIGPGEPLELLCNVSGALPPPGRHAAYSVGWEMAPAGAPGPGRLVAQLDTEGIGSLGPGYEDRHIAMEKVASRTYRLRLEAARPADAGTYRCLAKAYVRGSGTRLREAASARSRPLPVHVREEGVVLEAVAWLAGGTVYRGETASLLCNISVRGGPPGLRLAASWWVERPEEGELSSGPAQLVGGVGQDGVAELGVRPGGGPVSVELVGPRSHRLRLHGLGPEDEGIYHCAPSAWVQHADYSWYQAGSARSGPVTVYPYTHAVDTLFVPLLVGTGVALVTGASVLATITCCFMKRMRKR",binds
4,"family with sequence similarity 3, member C (protein, UniProt Q91VU0 25-227) QVFEIKMDASLGNLFARSALDSAIRSTKPPRYKCGISKACPEKHFAFKMASGAANVVGPKICLEDNVLMSGVKNNVGRGINIALVNGKTGEVIDTKFFDMWGGDVAPFIEFLKTIQDGTVVLMATYDDGATKLTDEARRLIAELGSTSITSLGFRDNWVFCGGKGIKTKSPFEQHIKNNKETNKYEGWPEVVEMEGCIPQKQD",binds
5,"guanine nucleotide binding protein, alpha 13 (protein, UniProt P27601 1-377) MADFLPSRSVLSVCFPGCVLTNGEAEQQRKSKEIDKCLSREKTYVKRLVKILLLGAGESGKSTFLKQMRIIHGQDFDQRAREEFRPTIYSNVIKGMRVLVDAREKLHIPWGDNKNQLHGDKLMAFDTRAPMAAQGMVETRVFLQYLPAIRALWEDSGIQNAYDRRREFQLGESVKYFLDNLDKLGVPDYIPSQQDILLARRPTKGIHEYDFEIKNVPFKMVDVGGQRSERKRWFECFDSVTSILFLVSSSEFDQVLMEDRQTNRLTESLNIFETIVNNRVFSNVSIILFLNKTDLLEEKVQVVSIKDYFLEFEGDPHCLRDVQKFLVECFRGKRRDQQQRPLYHHFTTAINTENIRLVFRDVKDTILHDNLKQLMLQ",binds
6,"protein disulfide isomerase associated 6 (protein, UniProt Q922R8 20-440) LYSSSDDVIELTPSNFNREVIQSDGLWLVEFYAPWCGHCQRLTPEWKKAATALKDVVKVGAVNADKHQSLGGQYGVQGFPTIKIFGANKNKPEDYQGGRTGEAIVDAALSALRQLVKDRLGGRSGGYSSGKQGRGDSSSKKDVVELTDDTFDKNVLDSEDVWMVEFYAPWCGHCKNLEPEWAAAATEVKEQTKGKVKLAAVDATVNQVLASRYGIKGFPTIKIFQKGESPVDYDGGRTRSDIVSRALDLFSDNAPPPELLEIINEDIAKKTCEEHQLCVVAVLPHILDTGAAGRNSYLEVLLKLADKYKKKMWGWLWTEAGAQYELENALGIGGFGYPAMAAINARKMKFALLKGSFSEQGINEFLRELSFGRGSTAPVGGGSFPTITPREPWDGKDGELPVEDDIDLSDVELDDLEKDEL",binds
7,"complement component 1, q subcomponent binding protein (protein, UniProt O35658 71-278) LHTEGDKAFVEFLTDEIKEEKKIQKHKSLPKMSGDWELEVNGTEAKLLRKVAGEKITVTFNINNSIPPTFDGEEEPSQGQKAEEQEPERTSTPNFVVEVTKTDGKKTLVLDCHYPEDEIGHEDEAESDIFSIKEVSFQATGDSEWRDTNYTLNTDSLDWALYDHLMDFLADRGVDNTFADELVELSTALEHQEYITFLEDLKSFVKNQ",binds

# Second part, the binder after the results:
row,binding,Binder
1,binds,"metal ion transporter ZIP6 (protein, UniProt Q8C145 21-765) LHELQSTAAFSQTTEKINSNWEPGVNVDLAVTMQRHHLQQLFYRYGENDSLSVEGFRKLLQNIGIDKIKRVHIHHDHEHHADHEHHSDHEHHSDHEHHSDHEHHSDHEHHSDHEHHSHRSHTVAGKNNRKAFCPDLDSDNSGKNPRTSLGKGSRPAEHMNGRRNIKESASSSEVTSAVYNAVSEGTRFVETIETPKPGRRTKDVNPSTPPSITEKSRVGRLSRLARKKSNESVSEPRKSFMYSRNTNDNIQECFNTTKLLTSHGMSIQALLNATEFNYLCPAIINQIDARACLIHTASEKKAEIPPKTYSLQIAWLGGFIAISIISFLSLLGVILVPLMNRVFFKFLLSFLVALAVGTLSGDALLHLLPHSHASHQHSHSHEEPAMEMKRGPLFSHLSAQNIEESSYFDSTWKGLTALGGLYFMFLVEHVLTLIKQFKDKKKKNQKKPENDEDVESKKQLSKYDSQLSSNEEKVDPGERPESYLRADSQEPSPFDSQQPTMLEEEEVMIAHAHPQEVYNEYVPRGCKNKCHSHFHDTLGQSDDLIHHHHDYHHILHHHHHQNHHPHSHSQRYSREELKDAGIATLAWMVIMGDGLHNFSDGLAIGAAFTEGLSSGLSTSVAVFCHELPHELGDFAVLLKAGMTVKQAVLYNALSAMLAYLGMATGIFIGHYAENVSMWIFALTAGLFMYVALVDMVPEMLHNDASDHGCSRWGYFFLQNAGILLGFGIMLLISIFEHKIVFRINF"
2,binds,"calnexin precursor (protein, UniProt P35564 21-591) HDGHDDDAIDIEDDLDDVIEEVEDSKSKSDASTPPSPKVTYKAPVPTGEVYFADSFDRGSLSGWILSKAKKDDTDDEIAKYDGKWEVDEMKETKLPGDKGLVLMSRAKHHAISAKLNKPFLFDTKPLIVQYEVNFQNGIECGGAYVKLLSKTAELSLDQFHDKTPYTIMFGPDKCGEDYKLHFIFRHKNPKTGVYEEKHAKRPDADLKTYFTDKKTHLYTLILNPDNSFEILVDQSVVNSGNLLNDMTPPVNPSREIEDPEDRKPEDWDERPKIADPDAVKPDDWDEDAPSKIPDEEATKPEGWLDDEPEYIPDPDAEKPEDWDEDMDGEWEAPQIANPKCESAPGCGVWQRPMIDNPNYKGKWKPPMIDNPNYQGIWKPRKIPNPDFFEDLEPFKMTPFSAIGLELWSMTSDIFFDNFIISGDRRVVDDWANDGWGLKKAADGAAEPGVVLQMLEAAEERPWLWVVYILTVALPVFLVILFCCSGKKQSNAMEYKKTDAPQPDVKDEEGKEEEKNKRDEEEEEEKLEEKQKSDAEEDGVTGSQDEEDSKPKAEEDEILNRSPRNRKPRRE"
3,binds,"ectonucleotide pyrophosphatase/phosphodiesterase 3 (protein, UniProt Q6DYE8 1-874) MDSRLALATEEPIKKDSLKKYKILCVVLLALLVIVSLGLGLGLGLRKPEEQGSCRKKCFDSSHRGLEGCRCDSGCTGRGDCCWDFEDTCVKSTQIWTCNLFRCGENRLETALCSCADDCLQRKDCCADYKTVCQGESPWVTEACASSQEPQCPPGFDLPPVILFSMDGFRAEYLQTWSTLLPNINKLKTCGIHSKYMRAMYPTKTFPNHYTIVTGLYPESHGIIDNNMYDVHLNKNFSLSSVEKSNPAWWSGQPIWLTAMYQGLKAACYYWPGSDVAVNGSFPTIYRNYSNSVPYERRITTLLQWLDLPKADRPSFYTIYVEEPDSAGHSSGPVSAGVIKALQSVDNAFGMLMEGLKQRNLHNCVNIIVLADHGMDQTSCDRVEYMTDYFPKINFYMYQGPAPRIRTRNIPQDFFTFNSEEIVRNLSCRKPDQHFKPYLTPDLPKRLHYAKNVRIDKAHLMVDRQWLAFRSKGSSNCGGGTHGYNNEFKSMEAIFLAHGPSFIEKTVIEPFENIEVYNLLCDLLHIEPAPNNGTHGSLNHLLKTPFYKPSHAGELSTPADCGFTTPLPTDPLDCSCPALQNTPGLEEQANQRLNLSEGEVAATVKANLPFGRPRVMQKNGDHCLLYHRDYISGYGKAMKMPMWSSYTVLKPGDTSSLPPTVPDCLRADVRVAPSESQKCSFYLADKNITHGFLYPAIKGTNESRYDALITSNLVPMYKEFKKMWDYFHEVLLIKYAIERNGLNVVSGPIFDYNYDGHFDAPDEITQYVAGTDVPIPTHYFVVLTSCKDQTHTPDSCPGWLDVLPFIVPHRPTNIESCSENKTEDLWVEERFQAHAARVRDVELLTGLDFYQEKAQPVSQILQLKTYLPTFETII"
4,binds,"transmembrane emp24 transport domain containing 9 (gp25L2) (protein, UniProt Q99KF1 38-235) LYFHIGETEKKCFIEEIPDETMVIGNYRTQLYDKQREEYQPATPGLGMFVEVKDPEDKVILARQYGSEGRFTFTSHTPGEHQICLHSNSTKFSLFAGGMLRVHLDIQVGEHANDYAEIAAKDKLSELQLRVRQLVEQVEQIQKEQNYQRWREERFRQTSESTNQRVLWWSILQTLILVAIGVWQMRHLKSFFEAKKLV"

# Source: paper PMC2749441
